Measured values as given in publication PMC7294945.
These are yes or no findings as the source states them, for the method shown. Binding seen in cells or lysates may run through a third protein. Some entries that bind do so weakly or less than the wild type. For some of these results: Tags and fused reporters may be left off the sequences shown.

What was measured:
[1] = target: T1, Flag-SETDB2 (stably expressed in SETDB2-rescued SUM159PT cells) (human) (UniProt Q96T68); assay: co-IP; anti-FLAG M2-agarose beads on lysate of SETDB2-rescued SUM159PT cells (stable Flag-SETDB2); endogenous ΔNp63α detected by Western blot
T1 sequence: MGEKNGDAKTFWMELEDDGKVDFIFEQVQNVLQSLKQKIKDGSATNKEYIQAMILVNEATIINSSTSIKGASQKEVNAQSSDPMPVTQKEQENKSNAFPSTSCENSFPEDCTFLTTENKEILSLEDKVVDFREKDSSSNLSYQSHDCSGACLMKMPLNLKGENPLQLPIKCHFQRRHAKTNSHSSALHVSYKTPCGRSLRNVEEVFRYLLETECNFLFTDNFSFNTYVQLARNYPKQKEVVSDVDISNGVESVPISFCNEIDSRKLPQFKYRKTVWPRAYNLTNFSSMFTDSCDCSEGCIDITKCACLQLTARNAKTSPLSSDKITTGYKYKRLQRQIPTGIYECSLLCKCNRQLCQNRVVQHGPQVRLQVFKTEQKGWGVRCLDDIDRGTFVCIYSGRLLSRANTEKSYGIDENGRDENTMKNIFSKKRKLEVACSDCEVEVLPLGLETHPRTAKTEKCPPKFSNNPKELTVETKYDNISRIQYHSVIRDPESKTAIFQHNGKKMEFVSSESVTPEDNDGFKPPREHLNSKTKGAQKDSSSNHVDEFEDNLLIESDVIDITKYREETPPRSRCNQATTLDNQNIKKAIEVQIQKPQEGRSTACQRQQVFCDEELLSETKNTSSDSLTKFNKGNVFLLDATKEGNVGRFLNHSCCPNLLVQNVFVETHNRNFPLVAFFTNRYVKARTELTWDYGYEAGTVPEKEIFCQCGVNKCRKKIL

[2] = target: T2, SETDB2 (endogenous) (human (endogenous in SUM159PT and MDA-MB-231)) (UniProt Q96T68); assay: co-IP; endogenous proteins; anti-SETDB2 antibody and protein A-agarose beads, overnight at 4°C; SUM159PT and MDA-MB-231 lysates (50 mM Tris-HCl pH 7.4, 150 mM NaCl, 1 mM EDTA, 1% Triton X-100); Western blot
T2 sequence: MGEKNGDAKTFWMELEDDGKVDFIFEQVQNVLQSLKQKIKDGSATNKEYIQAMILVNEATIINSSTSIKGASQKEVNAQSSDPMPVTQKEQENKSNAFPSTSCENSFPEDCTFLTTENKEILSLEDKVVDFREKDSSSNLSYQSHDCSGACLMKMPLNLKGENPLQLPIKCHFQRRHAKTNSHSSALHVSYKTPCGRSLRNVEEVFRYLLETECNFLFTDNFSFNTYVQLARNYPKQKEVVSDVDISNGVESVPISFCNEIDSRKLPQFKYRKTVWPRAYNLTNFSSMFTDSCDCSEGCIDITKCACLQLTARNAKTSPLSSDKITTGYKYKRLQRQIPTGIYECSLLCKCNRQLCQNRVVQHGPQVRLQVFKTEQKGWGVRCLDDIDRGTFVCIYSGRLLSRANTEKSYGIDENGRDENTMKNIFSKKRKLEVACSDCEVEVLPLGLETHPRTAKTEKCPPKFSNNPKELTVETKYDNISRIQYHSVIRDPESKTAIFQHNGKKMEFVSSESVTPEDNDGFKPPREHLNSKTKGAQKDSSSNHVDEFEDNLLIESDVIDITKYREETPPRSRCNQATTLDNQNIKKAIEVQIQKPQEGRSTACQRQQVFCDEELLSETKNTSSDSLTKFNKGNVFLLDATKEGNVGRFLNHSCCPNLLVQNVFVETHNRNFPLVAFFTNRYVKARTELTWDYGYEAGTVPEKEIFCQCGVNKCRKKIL

[3] = target: T3, Flag-SETDB2 (co-expressed in 293T cells) (human) (UniProt Q96T68); assay: co-IP; Flag-SETDB2 and HA-ΔNp63α co-expressed in 293T cells; co-immunoprecipitation and Western blot; which tag was precipitated is not given
T3 sequence: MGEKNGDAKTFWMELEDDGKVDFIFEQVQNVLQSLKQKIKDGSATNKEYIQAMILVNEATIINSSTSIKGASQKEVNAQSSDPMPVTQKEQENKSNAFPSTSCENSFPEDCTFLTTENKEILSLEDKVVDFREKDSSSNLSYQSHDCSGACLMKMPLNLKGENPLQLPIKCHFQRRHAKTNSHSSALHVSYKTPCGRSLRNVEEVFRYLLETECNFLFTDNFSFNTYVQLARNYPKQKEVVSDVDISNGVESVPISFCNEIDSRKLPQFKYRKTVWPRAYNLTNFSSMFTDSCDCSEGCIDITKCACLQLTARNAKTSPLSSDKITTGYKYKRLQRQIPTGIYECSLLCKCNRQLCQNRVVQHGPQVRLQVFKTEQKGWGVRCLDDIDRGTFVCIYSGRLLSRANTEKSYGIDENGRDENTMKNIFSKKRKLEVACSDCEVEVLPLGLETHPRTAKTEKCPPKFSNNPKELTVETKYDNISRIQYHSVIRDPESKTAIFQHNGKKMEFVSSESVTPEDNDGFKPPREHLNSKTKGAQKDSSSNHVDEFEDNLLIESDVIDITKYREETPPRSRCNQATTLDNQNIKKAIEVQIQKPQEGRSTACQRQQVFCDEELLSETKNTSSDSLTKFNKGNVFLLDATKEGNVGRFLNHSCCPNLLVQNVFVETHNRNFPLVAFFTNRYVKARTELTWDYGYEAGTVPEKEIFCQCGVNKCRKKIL

Binder | binding [1] | binding [2] | binding [3]
ΔNp63α (endogenous) (protein, UniProt Q9H3D4-2 1-586) MLYLENNAQTQFSEPQYTNLGLLNSMDQQIQNGSSSTSPYNTDHAQNSVTAPSPYAQPSSTFDALSPSPAIPSNTDYPGPHSFDVSFQQSSTAKSATWTYSTELKKLYCQIAKTCPIQIKVMTPPPQGAVIRAMPVYKKAEHVTEVVKRCPNHELSREFNEGQIAPPSHLIRVEGNSHAQYVEDPITGRQSVLVPYEPPQVGTEFTTVLYNFMCNSSCVGGMNRRPILIIVTLETRDGQVLGRRCFEARICACPGRDRKADEDSIRKQQVSDSTKNGDGTKRPFRQNTHGIQMTSIKKRRSPDDELLYLPVRGRETYEMLLKIKESLELMQYLPQHTIETYRQQQQQQHQHLLQKQTSIQSPSSYGNSSPPLNKMNSMNKLPSVSQLINPQQRNALTPTTIPDGMGANIPMMGTHMPMAGDMNGLSPTQALPPPLSMPSTSHCTPPPPYPTDCSIVSFLARLGCSSCLDYFTTQGLTTIYQIEHYSMDDLASLKIPEQFRHAIWKGILDHRQLHEFSSPSHLLRTPSSASTVSVGSSETRGERVIDAVRFTLRQTISFPPRDEWNDFNFDMDARRNKQQRIKEEGE | binds | binds | 
ΔNp63β (endogenous) (protein, UniProt Q9H3D4-4 1-461) MLYLENNAQTQFSEPQYTNLGLLNSMDQQIQNGSSSTSPYNTDHAQNSVTAPSPYAQPSSTFDALSPSPAIPSNTDYPGPHSFDVSFQQSSTAKSATWTYSTELKKLYCQIAKTCPIQIKVMTPPPQGAVIRAMPVYKKAEHVTEVVKRCPNHELSREFNEGQIAPPSHLIRVEGNSHAQYVEDPITGRQSVLVPYEPPQVGTEFTTVLYNFMCNSSCVGGMNRRPILIIVTLETRDGQVLGRRCFEARICACPGRDRKADEDSIRKQQVSDSTKNGDGTKRPFRQNTHGIQMTSIKKRRSPDDELLYLPVRGRETYEMLLKIKESLELMQYLPQHTIETYRQQQQQQHQHLLQKQTSIQSPSSYGNSSPPLNKMNSMNKLPSVSQLINPQQRNALTPTTIPDGMGANIPMMGTHMPMAGDMNGLSPTQALPPPLSMPSTSHCTPPPPYPTDCSIVRIWQV |  | binds weakly | 
HA-ΔNp63α (protein, UniProt Q9H3D4-2 1-586) MLYLENNAQTQFSEPQYTNLGLLNSMDQQIQNGSSSTSPYNTDHAQNSVTAPSPYAQPSSTFDALSPSPAIPSNTDYPGPHSFDVSFQQSSTAKSATWTYSTELKKLYCQIAKTCPIQIKVMTPPPQGAVIRAMPVYKKAEHVTEVVKRCPNHELSREFNEGQIAPPSHLIRVEGNSHAQYVEDPITGRQSVLVPYEPPQVGTEFTTVLYNFMCNSSCVGGMNRRPILIIVTLETRDGQVLGRRCFEARICACPGRDRKADEDSIRKQQVSDSTKNGDGTKRPFRQNTHGIQMTSIKKRRSPDDELLYLPVRGRETYEMLLKIKESLELMQYLPQHTIETYRQQQQQQHQHLLQKQTSIQSPSSYGNSSPPLNKMNSMNKLPSVSQLINPQQRNALTPTTIPDGMGANIPMMGTHMPMAGDMNGLSPTQALPPPLSMPSTSHCTPPPPYPTDCSIVSFLARLGCSSCLDYFTTQGLTTIYQIEHYSMDDLASLKIPEQFRHAIWKGILDHRQLHEFSSPSHLLRTPSSASTVSVGSSETRGERVIDAVRFTLRQTISFPPRDEWNDFNFDMDARRNKQQRIKEEGE |  |  | binds
